The list shows a part of the results. These are further read-outs of the screen, such as a control signal, another cell line or another target. No call is given for them. Most of these compounds were active or inconclusive in the main read-out, so they are no random draw. Words in brackets tell the shape of the fitted curve; partial curves, single points and poor fits give uncertain potencies.

The nature of this test: qHTS Assay for Identifying the Cell-Membrane Permeable IMPase Inhibitors. The conditions noted are these: CHO-M1 cells, IP1 accumulation, HTRF TR-FRET ratio; measured here: donor channel 620 nm AC50. A general note: Quantitative high-throughput screening tests each substance at several concentrations.
For `CCCCn1c(NCCC)nc2c1c(=O)[nH]c(=O)n2C`, the AC50 is 0.01 µM [falling, full curve].

Consider `CCOC(=O)c1ccc(N2C(=O)C(O)=C(C(C)=O)C2c2ccc(O)c(OC)c2)cc1` (stereo not drawn), for which the AC50 was 12.6 µM [falling, partial curve, poor fit].

For `CCOc1ccccc1NC(=O)c1nc[nH]c1C(=O)Nc1ccccc1OCC`, the concentration at half-maximal activity (AC50) was 0.0501 µM [rising, full curve, poor fit].

`Nc1c(C(=O)Nc2nc3ccccc3s2)sc2nc(-c3cccs3)ccc12`: the AC50 is 12.6 µM [rising, partial curve].

On to `COc1ccc(N2CCN(c3c(S(=O)(=O)c4ccccc4)cnc4ccc(OC)cc34)CC2)cc1`, for which the AC50 was 0.02 µM [falling, full curve, poor fit].

Turning to `c1ccc(N2CCN(c3ccccc3)C2c2cccnc2)cc1`, the AC50 is 0.794 µM [falling, full curve].

`CCC(C)(C)C1CCc2c(sc(NC(=O)c3ccoc3C)c2C(N)=O)C1` (stereo not drawn): the AC50 is 3.98 µM [falling, partial curve].

As for `Cc1c(NCc2nc3ccccc3[nH]2)c(=O)n(-c2ccccc2)n1C`, the AC50 was 0.316 µM [rising, partial curve, poor fit].

As to `COc1ccc(N2C(=O)CC(N3CCN(c4nc5ccccc5s4)CC3)C2=O)cc1` (stereo not drawn), the AC50 was 0.794 µM [falling, full curve].

As to `OCCNc1nc2ccccc2n1CCN1CCCCC1`, the AC50 was 2.51 µM [falling, single point].

Take `CC(=O)N1c2ccccc2C(C)(C)C2CCC(C)CC21` (stereo not drawn): the AC50 was 0.2 µM [falling, full curve].

On to `Cc1cccc(Cn2c(N3CCc4ccccc4C3)nc3c2c(=O)[nH]c(=O)n3C)c1`, for which the AC50 is 31.6 µM [rising, single point].

For the molecule `CCOc1ccc(/C(O)=C2/C(=O)C(=O)N(CCOCCO)C2c2ccccc2)cc1` (stereo not drawn), the AC50 was 20 µM [rising, partial curve, poor fit].

On to `CCn1c(COc2ccc(=O)n(-c3ccccc3)n2)nnc1SCc1cccc(OC)c1`, for which the AC50 is 1.26 µM [rising, full curve, poor fit].

`Cc1nc2ccccc2c(=O)n1NC(=O)c1c(O)c2c(n(CC(C)C)c1=O)CCCC2`: the AC50 is 0.631 µM [falling, full curve].

On to `C=CCNC(=S)NNC(=O)C(CCCC)CC(C)(C)O` (stereo not drawn), for which the AC50 was 0.158 µM [rising, single point].

With `O=C(c1nc2nc(-c3ccccc3)cc(C(F)(F)F)n2n1)N1CCCCC1`, the AC50 was 3.98 µM [falling, full curve, poor fit].

For the molecule `COC(=O)c1c(NC(=O)c2ccc(C)cc2)sc(Cc2ccccc2)c1C`, the AC50 is 0.0316 µM [rising, full curve, poor fit].

As to `N#C/C(=C(/O)C(Cl)c1ccccc1)c1nc2ccccc2s1` (stereo not drawn), the AC50 is 10 µM [falling, single point].

For `O=C(NCc1cccs1)c1ccc2c(c1)OCCO2`, the AC50 is 31.6 µM [rising, single point].

Take `COc1ccccc1N1CCN(C(=O)c2c(-c3ccccc3Cl)noc2C)CC1`: the AC50 was 5.01 µM [rising, single point].

For `O=C(CSc1nc(Nc2ccccc2)nc(N2CCOCC2)n1)Nc1ccc2c(c1)OCCO2`, the AC50 is 0.158 µM [falling, partial curve, poor fit].

With `COc1ccccc1NS(=O)(=O)c1cccc(NC(=O)NC2CCCCC2)c1`, the AC50 was 0.562 µM [falling, full curve].

Regarding `COC(=O)COc1cccc(-n2cnnn2)c1`, the AC50 was 0.631 µM [rising, full curve, poor fit].

For the molecule `O=C(CCCOc1ccc(Cl)cc1Cl)N1CCN(c2ccccn2)CC1`, the AC50 was 10 µM [falling, partial curve].

Turning to `Nc1c(O)ccc2c1C(=O)c1ccccc1C2=O`, the AC50 was 12.6 µM [falling, partial curve].

Consider `CCOc1ccc(N(CC(=O)Nc2cccc(OC)c2)S(=O)(=O)c2c(C)noc2C)cc1`, for which the AC50 is 44.7 µM [rising, partial curve, poor fit].

For `Nc1cc2nsnc2cc1Br`, the AC50 was 12.6 µM [rising, partial curve].

In the case of `Cc1ccc(N(C(=O)NC2CCCCC2)C2=NCCCCC2)cc1`, the AC50 was 0.00126 µM [rising, full curve, poor fit].

In the case of `COc1nc(NC2CCCCC2)nc(N2CCCCCC2)n1`, the AC50 is 0.251 µM [falling, single point].

On to `CCCc1c(CC)c(=N)c2ccccc2n1C`, for which the concentration at half-maximal activity (AC50) is 0.0316 µM [falling, full curve, poor fit].

Take `NC(=O)c1cnn2c(C(F)(F)F)cc(-c3ccccc3)nc12`: the half-maximal activity concentration (AC50) is 0.00794 µM [falling, full curve, poor fit].

As for `O=C(CN1CCN(c2nc(-c3ccccc3)cs2)CC1)Nc1ccc2c(c1)OCO2`, the AC50 is 1.41 µM [falling, full curve, poor fit].

In the case of `Cc1ccc(-c2csc(NC(=O)c3cccs3)n2)cc1`, the AC50 was 6.31 µM [falling, single point].

In the case of `CC(=O)NC1=C(NC2CCS(=O)(=O)C2)C(=O)c2ccccc2C1=O` (stereo not drawn), the AC50 was 11.2 µM [falling, partial curve].

Consider `Cc1ccc(-c2noc(C3CCCN(C(=O)c4ccccc4)C3)n2)o1` (stereo not drawn), for which the AC50 was 2 µM [falling, full curve].

As to `COc1ccc(-c2nc3ccccc3n2Cc2ccccc2)cc1`, the AC50 is 22.4 µM [rising, single point].

With `Cc1ccccc1NS(=O)(=O)c1ccc(C)c(C(N)=O)c1`, the AC50 is 0.01 µM [falling, full curve, poor fit].

Turning to `COc1ccc(OC)c(C(=O)c2ccccc2)c1`, the AC50 was 0.631 µM [falling, single point].

On to `CCCCNc1nc(-c2ccccc2)cc(C(F)(F)F)c1C(N)=O`, for which the AC50 is 0.251 µM [falling, full curve].

`Cc1nc(C)c(C(=O)Nc2nc3c(C)cccc3s2)o1`: the AC50 was 5.01 µM [falling, single point].

Take `CCN(CC(=O)NC1CCS(=O)(=O)C1)c1nc(-c2ccccc2)nc2ccccc12` (stereo not drawn): the AC50 is 0.0126 µM [rising, full curve, poor fit].

Take `CCOc1ccccc1OCCCOc1ccc(C)cc1Cl`: the AC50 is 6.31 µM [rising, full curve, poor fit].

Usually AC50 stands for the concentration at which the activity in the assay is half-maximal.

These data come from PubChem BioAssay AID901 (National Center for Advancing Translational Sciences (NCATS), 2007).
